PubChem BioAssay AID1259308 | NCATS, 2017
In all, the deposit lists about 59,000 reagents; below is an unselected part. About 1,510 of them (2.6%) count as active. 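Calls use total luciferase alone and ignore viability, so some active siRNAs may act by altering cell number.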 Reagents against one gene are numbered here.

Purpose: 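Knock-downs that increase output of a recombinant reporter protein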 (primary screen)
Cell system: human HEK293 embryonic kidney cells stably expressing firefly luciferase (HEK-CMV-Luc2-Hygro)
Reagents: single siRNA against human genes, 0.8 pmol siRNA per well
Time to read-out: 72 h
Read-out: 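Luciferase light (ONE-Glo) measured on one replicate plate set and viability (CellTiter-Glo) on the other, scaled to a negative control siRNA, with robust z-scores and luciferase per cell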
Reading the numbers: total luciferase, z-score and total luciferase, % of control: higher = more reporter protein produced; luciferase per cell, z-score: higher = more reporter output per viable cell; viable cells, % of control: higher = more viable cells
Hit rule: 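An siRNA counts as active if its total luciferase robust z-score exceeds 3; genes with two or more such siRNAs out of three were retested with fresh siRNAs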
Meaning of the calls: active = raised luciferase; inactive = no rise

| gene | siRNA no. | total luciferase, z-score | total luciferase, % of control | luciferase per cell, z-score | viable cells, % of control | activity call |
| --- | --- | --- | --- | --- | --- | --- |
| GGH (gamma-glutamyl hydrolase) | 1 | 0.146 | 84.8 | -0.366 | 104 | inactive |
| GGH (gamma-glutamyl hydrolase) | 2 | -0.18 | 78.3 | -0.908 | 111 | inactive |
| GGH (gamma-glutamyl hydrolase) | 3 | -0.467 | 72.6 | -0.556 | 93.9 | inactive |
| TAF1A | 1 | 1.95 | 121 | 1.53 | 90.1 | inactive |
| TAF1A | 2 | -0.364 | 74.6 | -0.419 | 93.1 | inactive |
| TAF1A | 3 | -1.6 | 50 | -1.34 | 79.6 | inactive |
| DARS2 (aspartyl-tRNA synthetase 2, mitochondrial) | 1 | -0.678 | 68.4 | -0.357 | 84 | inactive |
| DARS2 (aspartyl-tRNA synthetase 2, mitochondrial) | 2 | -1.64 | 49.2 | -1.7 | 86 | inactive |
| DARS2 (aspartyl-tRNA synthetase 2, mitochondrial) | 3 | -0.668 | 68.6 | -0.248 | 81.8 | inactive |
| MTERF3 (mitochondrial transcription termination factor 3) | 1 | 0.343 | 88.7 | 0.0906 | 96.8 | inactive |
| MTERF3 (mitochondrial transcription termination factor 3) | 2 | 1.62 | 114 | 1.24 | 92.1 | inactive |
| MTERF3 (mitochondrial transcription termination factor 3) | 3 | -0.794 | 66.1 | -0.954 | 94.9 | inactive |
| YY2 (YY2 transcription factor) | 1 | -0.195 | 78 | 0.0516 | 86 | inactive |
| YY2 (YY2 transcription factor) | 2 | 0.0783 | 83.4 | 0.301 | 86.1 | inactive |
| YY2 (YY2 transcription factor) | 3 | -1.97 | 42.8 | 0.0562 | 47.1 | inactive |
| OSBP (oxysterol binding protein) | 1 | -0.0717 | 80.5 | -0.431 | 101 | inactive |
| OSBP (oxysterol binding protein) | 2 | 0.485 | 91.5 | 0.0118 | 102 | inactive |
| OSBP (oxysterol binding protein) | 3 | 2.16 | 125 | 1.62 | 91.1 | inactive |
| TEDC2 (tubulin epsilon and delta complex 2) | 1 | 0.6 | 93.8 | 0.338 | 95.9 | inactive |
| TEDC2 (tubulin epsilon and delta complex 2) | 2 | -0.122 | 79.5 | 0.241 | 83.3 | inactive |
| TEDC2 (tubulin epsilon and delta complex 2) | 3 | -0.484 | 72.3 | -0.727 | 97.8 | inactive |

Reprinted from above, 4 entries:
| gene | siRNA no. | total luciferase, z-score | total luciferase, % of control | luciferase per cell, z-score | viable cells, % of control | activity call |
| --- | --- | --- | --- | --- | --- | --- |
| YY2 (YY2 transcription factor) | 1 | -0.195 | 78 | 0.0516 | 86 | inactive |
| YY2 (YY2 transcription factor) | 2 | 0.0783 | 83.4 | 0.301 | 86.1 | inactive |
| YY2 (YY2 transcription factor) | 3 | -1.97 | 42.8 | 0.0562 | 47.1 | inactive |
| OSBP (oxysterol binding protein) | 1 | -0.0717 | 80.5 | -0.431 | 101 | inactive |

Next reagents follow:
| gene | siRNA no. | total luciferase, z-score | total luciferase, % of control | luciferase per cell, z-score | viable cells, % of control | activity call |
| --- | --- | --- | --- | --- | --- | --- |
| BCAP31 (B cell receptor associated protein 31) | 1 | 0.442 | 90.7 | -0.268 | 109 | inactive |
| BCAP31 (B cell receptor associated protein 31) | 2 | 0.425 | 90.3 | -0.246 | 108 | inactive |
| BCAP31 (B cell receptor associated protein 31) | 3 | 0.0208 | 82.3 | -0.118 | 94.9 | inactive |
| OR10S1 (olfactory receptor family 10 subfamily S member 1) | 1 | 0.0679 | 83.2 | -0.453 | 105 | inactive |
| OR10S1 (olfactory receptor family 10 subfamily S member 1) | 2 | 2.82 | 138 | 1.91 | 93.2 | inactive |
| OR10S1 (olfactory receptor family 10 subfamily S member 1) | 3 | -1.92 | 43.7 | -0.19 | 51.4 | inactive |
| L1CAM-AS1 (L1CAM antisense RNA 1) | 1 | 1.27 | 107 | 0.372 | 109 | inactive |
| L1CAM-AS1 (L1CAM antisense RNA 1) | 2 | -0.517 | 71.6 | -0.168 | 83.6 | inactive |
| L1CAM-AS1 (L1CAM antisense RNA 1) | 3 | 0.547 | 92.8 | 1.49 | 70.1 | inactive |
| CD1A (CD1a molecule) | 1 | 1.39 | 110 | 0.946 | 95.5 | inactive |
| CD1A (CD1a molecule) | 2 | -0.302 | 75.9 | -0.251 | 90.6 | inactive |
| CD1A (CD1a molecule) | 3 | 0.453 | 90.9 | 0.272 | 94.6 | inactive |
| REPS1 (RALBP1 associated Eps domain containing 1) | 1 | -0.108 | 79.7 | 0.585 | 76.4 | inactive |
| REPS1 (RALBP1 associated Eps domain containing 1) | 2 | -1.37 | 54.6 | -1.87 | 99.9 | inactive |
| REPS1 (RALBP1 associated Eps domain containing 1) | 3 | 0.291 | 87.7 | 0.907 | 77.2 | inactive |
| STEAP3 (STEAP3 metalloreductase) | 1 | -1.03 | 61.5 | -1.65 | 106 | inactive |
| STEAP3 (STEAP3 metalloreductase) | 2 | -0.909 | 63.8 | -0.967 | 92 | inactive |
| STEAP3 (STEAP3 metalloreductase) | 3 | 1.73 | 116 | 1.15 | 96.1 | inactive |
| RAB21 (RAB21, member RAS oncogene family) | 1 | -0.173 | 78.4 | 0.148 | 84.3 | inactive |
| RAB21 (RAB21, member RAS oncogene family) | 2 | 0.114 | 84.2 | -0.25 | 100 | inactive |
| RAB21 (RAB21, member RAS oncogene family) | 3 | 0.658 | 95 | 0.0701 | 104 | inactive |
| MTNAP1 (mitochondrial nucleoid associated protein 1) | 1 | 1.82 | 118 | 0.907 | 104 | inactive |
| MTNAP1 (mitochondrial nucleoid associated protein 1) | 2 | 1.17 | 105 | 1.47 | 79.8 | inactive |
| MTNAP1 (mitochondrial nucleoid associated protein 1) | 3 | 1.88 | 119 | 0.968 | 103 | inactive |
| AGBL2 (AGBL carboxypeptidase 2) | 1 | 0.116 | 84.2 | 0.86 | 75 | inactive |
| AGBL2 (AGBL carboxypeptidase 2) | 2 | -1.48 | 52.4 | -1.03 | 76.7 | inactive |
| AGBL2 (AGBL carboxypeptidase 2) | 3 | -0.301 | 75.9 | 0.195 | 80.6 | inactive |
| C4BPB (complement component 4 binding protein beta) | 1 | 0.276 | 87.4 | 0.228 | 92 | inactive |
| C4BPB (complement component 4 binding protein beta) | 2 | 1.55 | 113 | 2.68 | 62.3 | inactive |
| C4BPB (complement component 4 binding protein beta) | 3 | 0.32 | 88.2 | 1.45 | 67.3 | inactive |
| RNPEP (arginyl aminopeptidase) | 1 | 1.06 | 103 | -0.0518 | 117 | inactive |
| RNPEP (arginyl aminopeptidase) | 2 | -0.0649 | 80.6 | -0.371 | 99.3 | inactive |
| RNPEP (arginyl aminopeptidase) | 3 | -1.39 | 54.1 | -1.25 | 84 | inactive |
| MACC1 (MET transcriptional regulator MACC1) | 1 | -2.3 | 36.1 | -1.26 | 56.1 | inactive |
| MACC1 (MET transcriptional regulator MACC1) | 2 | -0.886 | 64.3 | -0.0121 | 72.1 | inactive |
| MACC1 (MET transcriptional regulator MACC1) | 3 | 0.819 | 98.2 | 0.516 | 95.8 | inactive |
